Record: PubChem BioAssay AID1259308 (NCATS, 2017)
Assay: 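Knock-downs that increase output of a recombinant reporter protein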 (primary screen). Cell system: human HEK293 embryonic kidney cells stably expressing firefly luciferase (HEK-CMV-Luc2-Hygro). Reagent: single siRNA against human genes, 0.8 pmol siRNA per well. Time to read-out: 72 h. Measurement: 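Reporter luminescence and viable-cell signal on separate replicate plates, given as percent of non-targeting control and median/MAD z-scores, plus per-cell luciferase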. Direction: total luciferase, z-score and total luciferase, % of control: higher = more reporter protein produced; luciferase per cell, z-score: higher = more reporter output per viable cell; viable cells, % of control: higher = more viable cells. Hit rule: 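An siRNA counts as active if its total luciferase robust z-score exceeds 3; genes with two or more such siRNAs out of three were retested with fresh siRNAs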. Meaning of the calls: active = raised luciferase; inactive = no rise.
In all, the deposit lists about 59,000 reagents; shown is an unselected part. About 1,510 of all reagents (2.6%) were called active. 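Calls use total luciferase alone and ignore viability, so some active siRNAs may act by altering cell number.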 Entries without a mark were called inactive. Reagents against one gene are numbered here.

| gene knocked down | reagent | total luciferase, z-score | total luciferase, % of control | luciferase per cell, z-score | viable cells, % of control |
| --- | --- | --- | --- | --- | --- |
| SLC22A2 | 1 | -0.221 | 77.5 | -0.643 | 103 |
| SLC22A2 | 2 | 0.115 | 84.2 | -0.649 | 112 |
| SLC22A2 | 3 | -0.809 | 65.8 | -0.751 | 89.6 |
| TRMT61A | 1 | 0.663 | 95.1 | -0.522 | 122 |
| TRMT61A | 2 | 0.877 | 99.3 | 1.27 | 79.4 |
| TRMT61A | 3 | -0.346 | 75 | -0.604 | 98.2 |
| PARP2 | 1 | -0.38 | 74.3 | 0.187 | 79.1 |
| PARP2 | 2 | -0.4 | 73.9 | -0.824 | 103 |
| PARP2 | 3 | -0.161 | 78.7 | -0.23 | 93.4 |
| HOXA6 | 1 | -0.0955 | 80 | -0.0832 | 91.4 |
| HOXA6 | 2 | -0.249 | 76.9 | 0.0257 | 85.4 |
| HOXA6 | 3 | -0.757 | 66.8 | -0.764 | 91.3 |
| LILRA2 | 1 | 2.4 | 130 | 2.47 | 75.5 |
| LILRA2 | 2 | -1.04 | 61.2 | -1.43 | 99.6 |
| LILRA2 | 3 | 1.27 | 107 | 1.6 | 78.6 |
| HOPX | 1 | 0.397 | 89.8 | 0.621 | 85.2 |
| HOPX | 2 | -0.171 | 78.5 | -0.267 | 94.1 |
| HOPX | 3 | -0.147 | 79 | -0.361 | 97 |
| TXNDC16 | 1 | 0.879 | 99.4 | 1.01 | 85.1 |
| TXNDC16 | 2 | 2.42 | 130 | 2.05 | 84.7 |
| TXNDC16 | 3 | 0.46 | 91 | 0.893 | 80.4 |
| GRIN2A | 1 | -0.952 | 63 | -0.832 | 87.6 |
| GRIN2A | 2 | 0.0573 | 83 | 0.423 | 83 |
| GRIN2A | 3 | -0.138 | 79.1 | -0.943 | 113 |
| A4GALT | 1 | -0.689 | 68.2 | -0.359 | 83.7 |
| A4GALT | 2 | 0.241 | 86.7 | -0.0419 | 97.9 |
| A4GALT | 3 | -0.781 | 66.3 | -0.96 | 95.5 |
| ASTN1 | 1 | 0.557 | 93 | 0.597 | 88.8 |
| ASTN1 | 2 | 1.19 | 106 | 1.86 | 72.3 |
| ASTN1 | 3 | -1.54 | 51.2 | -1.41 | 83 |
| ORC4 | 1 | 0.49 | 91.6 | 0.0826 | 100 |
| ORC4 | 2 | -1.14 | 59.2 | -1.62 | 101 |
| ORC4 | 3 | -1.15 | 59.1 | 0.215 | 62.4 |
| GRAMD1B | 1 | -0.332 | 75.3 | -0.344 | 92.1 |
| GRAMD1B | 2 | -2.03 | 41.5 | -2.35 | 86.3 |
| GRAMD1B | 3 | -0.64 | 69.2 | -0.33 | 84.3 |
| MTA1 | 1 | 1.21 | 106 | 0.135 | 114 |
| MTA1 | 2 | 0.295 | 87.8 | 0.508 | 85.8 |
| MTA1 | 3 | -0.538 | 71.2 | -0.475 | 90.2 |
| NTAN1 | 1 | 2.42 | 130 | 2.87 | 68.2 |
| NTAN1 | 2 | 0.2 | 85.9 | 1.01 | 73.5 |
| NTAN1 | 3 | -0.256 | 76.8 | -0.0924 | 87.9 |
| AVIL | 1 | -1.3 | 56 | 0.185 | 59.6 |
| AVIL | 2 | 1.46 | 111 | 0.558 | 107 |
| AVIL | 3 | -0.222 | 77.5 | -0.4 | 96.2 |
| CDC40 | 1 | 1.18 | 105 | 1.32 | 83 |
| CDC40 | 2 | 0.248 | 86.8 | 0.419 | 86.9 |
| CDC40 | 3 | 2.4 | 130 | 2.89 | 67.6 |
| NEK7 | 1 | -1.3 | 56.1 | -0.565 | 72.7 |
| NEK7 | 2 | -0.497 | 72 | -0.517 | 92.2 |
| NEK7 | 3 | 0.0213 | 82.3 | -0.0471 | 93.1 |
| CHAC2 | 1 | 0.409 | 90 | 0.135 | 97.1 |
| CHAC2 | 2 | 1.97 | 121 | 1.04 | 103 |
| CHAC2 | 3 | 0.428 | 90.4 | 0.334 | 92.5 |
| BTF3L4 | 1 | -0.434 | 73.3 | -0.502 | 93.4 |
| BTF3L4 | 2 | 0.674 | 95.3 | 0.318 | 97.9 |
| BTF3L4 | 3 | -0.26 | 76.7 | -0.153 | 89.3 |

7 entries from above, reduced to “luciferase per cell, z-score”.
NTAN1 #1: 2.87
NTAN1 #2: 1.01
NTAN1 #3: -0.0924
AVIL #1: 0.185
AVIL #2: 0.558
AVIL #3: -0.4
CDC40 #1: 1.32
